Experimental data as given in patent publication US20120149060A1 (EUROPAISCHES LABORATORIUM FUR MOLEKULARBIOLOGIE EMBL, published 2012).
These are yes or no findings as the source states them, for the method shown. Some binding calls cover weakened binding; strength is not graded here. Where a sequence is shown, tags or fusion partners need not be part of it.

Target: T1, NYB (amino acids 49-141) (human) (UniProt P25208)
T1 sequence (looked up): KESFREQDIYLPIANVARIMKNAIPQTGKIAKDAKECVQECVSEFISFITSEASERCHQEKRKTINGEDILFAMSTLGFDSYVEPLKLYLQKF
Experiment: co-expression in E. coli by cotransformation, Ni2+ capture by the His6 tag on NYC, then S75HR size exclusion chromatography

binding: binds
B1: NYC (amino acids 27-12) with a six-histidine tag at the N-terminus (protein, human, UniProt Q13952 27-120, looked up, not shown: small tags and cut ends)
chain: MEEIRNLTVKDFRVQELPLARIKKIMKLDEDVKMISAEAPVLFAKAAQIFITELTLRAWIHTEDNKRRTLQRNDIAMAITKFDQFDFLIDIVPR
